No constants are given. Whether binding was seen depends on the method and setting. For some of these results: Binding seen in cells or lysates may run through a third protein. Some binding calls cover weakened binding; strength is not graded here. For some of these results: Tags and fused reporters may be left off the sequences shown.

Sequences of proteins named here, by UniProt entry; tags and fusion partners are left off. Residues count along the entry.
UniProt P21554, residues 418-472: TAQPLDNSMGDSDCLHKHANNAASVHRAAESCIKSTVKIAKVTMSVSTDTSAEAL

Two molecules from patent US20050095674A1, “Cannabinoid receptor interacting proteins and methods of use” (priority 2003, published 2005) can be followed below.

Assay [1] deals with amino acids at positions 418-472 of the human cannabinoid receptor (CB1) fused to the GALA DNA binding domain (human) (UniProt P04386+P21554). In words: yeast two-hybrid, beta-galactosidase colour.
Assay [2] deals with GST fusion peptide of GST and amino acids at position 418-472 of the CB1 receptor (pGEX-4T-1) (human) (UniProt P21554). In words: GST pull-down on Glutathione Sepharose-4B.
Assay [3] shares this target. As to the kind of experiment: GST pull-down on Glutathione Sepharose-4B, Coomassie-stained SDS-PAGE.
Assay [4] has the same target. As to the kind of experiment: GST pull-down on Glutathione Sepharose-4B, Western blot with S-tag probe. A general note: A western blot detects proteins with antibodies after separation by electrophoresis.

B1: CRIP1b amino acids 34-128 of SEQ ID NO:2 (part of exon 1 + exon 2 + exon 3), yeast two-hybrid clone (protein, not shown: large carriers)
chain: QNRTIKLLTGSSYKVEVKIKPSTLQVENISIGGVLVPLELKSKEPDGDRVVYTGTYDTEGVTPTKSGERQPIQITMPECLEQRPQEISLTYECEE
As to B1, the binding entry in assay [1] is listed as “binds”.

B2: S-tagged CRIP1b (amino acids at positions 34-128) expressed from pET30C in BL21(DE3) E. coli (protein, not shown: small tags and cut ends)
chain: QNRTIKLLTGSSYKVEVKIKPSTLQVENISIGGVLVPLELKSKEPDGDRVVYTGTYDTEGVTPTKSGERQPIQITMPECLEQRPQEISLTYECEE
Take B2: the binding result in assay [2], in assay [3] and in assay [4] was “binds” each time.
